In the supplement of paper PMC12819154, “High-throughput peptide-centric local stability assay extends protein–ligand identification to membrane proteins, tissues and bacteria” (Nature Structural & Molecular Biology, 2025):
The other results are listed elsewhere or left out. Most entries show no effect beyond the scatter of the controls.

Amino acid sequences for entries named in this document (tags omitted). A change or cut given only in a name is not applied to a line headed by its entry.
UniProt P09327: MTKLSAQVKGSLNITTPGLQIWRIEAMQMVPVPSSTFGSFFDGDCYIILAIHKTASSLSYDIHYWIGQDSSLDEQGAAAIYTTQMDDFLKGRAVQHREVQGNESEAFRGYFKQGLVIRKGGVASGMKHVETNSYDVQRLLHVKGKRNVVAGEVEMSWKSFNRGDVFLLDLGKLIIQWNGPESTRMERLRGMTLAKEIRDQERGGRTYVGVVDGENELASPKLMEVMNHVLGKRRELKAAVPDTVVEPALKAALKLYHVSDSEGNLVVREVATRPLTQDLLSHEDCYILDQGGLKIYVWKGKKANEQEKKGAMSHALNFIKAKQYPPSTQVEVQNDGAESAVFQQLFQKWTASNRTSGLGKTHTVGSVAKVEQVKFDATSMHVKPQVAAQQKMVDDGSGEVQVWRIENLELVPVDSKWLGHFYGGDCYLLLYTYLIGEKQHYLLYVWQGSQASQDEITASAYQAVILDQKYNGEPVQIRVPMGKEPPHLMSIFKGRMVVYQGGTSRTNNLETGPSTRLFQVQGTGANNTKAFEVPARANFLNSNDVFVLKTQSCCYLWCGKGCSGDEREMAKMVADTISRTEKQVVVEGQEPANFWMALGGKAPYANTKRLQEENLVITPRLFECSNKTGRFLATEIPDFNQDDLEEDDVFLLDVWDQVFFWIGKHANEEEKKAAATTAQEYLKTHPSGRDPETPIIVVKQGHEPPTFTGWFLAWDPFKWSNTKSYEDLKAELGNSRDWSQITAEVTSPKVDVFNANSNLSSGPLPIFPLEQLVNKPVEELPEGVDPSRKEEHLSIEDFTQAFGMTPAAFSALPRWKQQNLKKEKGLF
UniProt P02654: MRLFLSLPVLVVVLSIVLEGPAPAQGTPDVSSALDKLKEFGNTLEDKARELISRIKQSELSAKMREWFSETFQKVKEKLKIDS
UniProt P10074: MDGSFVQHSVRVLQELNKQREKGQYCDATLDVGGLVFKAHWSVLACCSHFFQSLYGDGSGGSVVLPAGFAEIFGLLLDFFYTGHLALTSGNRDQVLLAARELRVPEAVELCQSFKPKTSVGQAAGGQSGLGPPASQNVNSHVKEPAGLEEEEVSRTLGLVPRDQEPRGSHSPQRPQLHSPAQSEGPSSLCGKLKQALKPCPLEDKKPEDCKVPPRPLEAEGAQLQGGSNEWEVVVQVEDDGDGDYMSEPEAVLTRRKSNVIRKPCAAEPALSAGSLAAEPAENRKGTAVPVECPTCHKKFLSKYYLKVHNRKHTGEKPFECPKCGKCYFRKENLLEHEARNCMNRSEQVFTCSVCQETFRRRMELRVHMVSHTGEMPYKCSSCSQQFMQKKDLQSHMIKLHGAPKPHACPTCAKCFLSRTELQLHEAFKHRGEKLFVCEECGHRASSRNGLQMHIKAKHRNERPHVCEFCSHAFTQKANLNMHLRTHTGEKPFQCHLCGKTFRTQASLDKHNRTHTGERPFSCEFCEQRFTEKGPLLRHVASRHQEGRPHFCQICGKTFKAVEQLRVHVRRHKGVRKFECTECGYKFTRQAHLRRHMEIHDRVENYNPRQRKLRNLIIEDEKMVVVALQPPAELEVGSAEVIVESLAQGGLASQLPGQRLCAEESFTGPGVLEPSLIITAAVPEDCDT
UniProt P0CW19: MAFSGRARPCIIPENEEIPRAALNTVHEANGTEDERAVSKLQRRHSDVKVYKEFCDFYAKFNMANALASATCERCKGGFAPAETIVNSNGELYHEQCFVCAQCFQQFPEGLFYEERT
UniProt P0DJG4: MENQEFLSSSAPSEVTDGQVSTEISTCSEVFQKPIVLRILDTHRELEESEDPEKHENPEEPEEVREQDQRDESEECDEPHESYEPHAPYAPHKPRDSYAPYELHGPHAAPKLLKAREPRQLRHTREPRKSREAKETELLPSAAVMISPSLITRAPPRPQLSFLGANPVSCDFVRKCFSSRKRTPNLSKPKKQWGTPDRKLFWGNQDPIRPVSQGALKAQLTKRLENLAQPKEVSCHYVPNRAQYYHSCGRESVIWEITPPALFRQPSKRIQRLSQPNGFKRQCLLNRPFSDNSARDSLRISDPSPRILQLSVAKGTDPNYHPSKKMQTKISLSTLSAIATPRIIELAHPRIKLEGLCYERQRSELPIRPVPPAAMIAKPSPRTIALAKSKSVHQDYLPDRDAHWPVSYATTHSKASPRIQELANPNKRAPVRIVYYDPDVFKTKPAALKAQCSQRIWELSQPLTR
UniProt P13224: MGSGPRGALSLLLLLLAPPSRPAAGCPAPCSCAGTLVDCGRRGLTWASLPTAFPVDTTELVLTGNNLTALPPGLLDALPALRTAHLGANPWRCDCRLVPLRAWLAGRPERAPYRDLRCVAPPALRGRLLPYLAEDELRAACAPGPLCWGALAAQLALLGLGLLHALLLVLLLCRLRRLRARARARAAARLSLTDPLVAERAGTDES
UniProt P10155: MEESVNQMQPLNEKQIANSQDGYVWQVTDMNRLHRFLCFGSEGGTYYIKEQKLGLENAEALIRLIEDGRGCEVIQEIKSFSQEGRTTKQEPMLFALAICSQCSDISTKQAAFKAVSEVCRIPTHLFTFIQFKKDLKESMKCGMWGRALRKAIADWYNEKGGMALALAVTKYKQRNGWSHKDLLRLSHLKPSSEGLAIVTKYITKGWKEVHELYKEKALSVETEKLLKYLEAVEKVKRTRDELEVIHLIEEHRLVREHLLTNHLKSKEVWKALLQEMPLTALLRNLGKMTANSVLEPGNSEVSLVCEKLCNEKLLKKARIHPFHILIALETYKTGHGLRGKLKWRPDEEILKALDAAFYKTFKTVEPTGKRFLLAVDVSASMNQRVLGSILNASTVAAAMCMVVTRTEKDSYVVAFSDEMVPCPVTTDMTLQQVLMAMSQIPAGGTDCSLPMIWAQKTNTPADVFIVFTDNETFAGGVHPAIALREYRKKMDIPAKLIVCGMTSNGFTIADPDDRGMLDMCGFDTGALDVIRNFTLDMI

The targets below were run with Cc1nc(Nc2ncc(C(=O)Nc3c(C)cccc3Cl)s2)cc(N2CCN(CCO)CC2)n1 [dasatinib] (assay: log2 fold change of tryptic peptide abundance, ligand vs vehicle (limited proteolysis) (log2 ratio); higher = more trypsin-susceptible (destabilized)). Conditions: ligand concentration: 5 uM; sample: K562 cleared lysate.

| Target | log2 fold change |
| --- | --- |
| VIL1 (peptide sequence: AAVPDTVVEPALK, peptide start residue: 238) (UniProt P09327) | -0.526 |
| APOC1 (peptide sequence: IKQSELSAK, peptide start residue: 55) (UniProt P02654) | -0.207 |
| ZBTB48 (peptide sequence: PHVCEFCSHAFTQK, peptide start residue: 464) (UniProt P10074) | -0.461 |
| UniProt P0CW19 (peptide sequence: AALNTVHEANGTEDER, peptide start residue: 21) | -0.275 |
| UniProt P0DJG4 (peptide sequence: DSYAPYELHGPHAAPK, peptide start residue: 96) | -0.427 |
| GP1BB (peptide sequence: LSLTDPLVAER, peptide start residue: 190) (UniProt P13224) | 0.0436 |
| UniProt P10155 (peptide sequence: LSHLKPSSEGLAIVTK, peptide start residue: 185) | 0.332 |
